According to US20250127790A1, “COMBINATION THERAPY USING VPS34 INHIBITORS” (Deciphera Pharmaceuticals, LLC, priority 2021, published 2025):
Some results were stated once for a whole list of compounds, not compound by compound.

Key:
[1] = tested on: 786-O renal cell carcinoma cells; assay: qRT-PCR, Type 1 Interferon pathway gene expression in 786-O cells; format: cell-based, Human; settings: 2 μM, 24 hr
Method: 786-O cells were grown in RPMI-1640 medium containing 10% fetal bovine serum. Cells were then incubated for 2 days at 37 degrees Celsius, 5% CO2, and 95% humidity. 786-O cells were incubated with 2 μM of compound 1 for 24 hr. Cells were washed with PBS and RNA was isolated using the PureLink RNA kit (#12183018A, Thermo Fisher Scientific) according to the manufacturer's protocol. Genomic DNA was removed using DNA-binding columns (RNeasy plus kit, #74134, Qiagen) and/or DNase treatment (#12185010, Thermo Fisher Scientific). RNA was quantified using NanoDrop (Thermo Fisher Scientific) and 50 ng/μL RNA was used for cDNA synthesis with SuperScript IV VILO Master Mix (#11756050, Thermo Fisher Scientific). Quantitative RT-PCR (qRT-PCR) was run with diluted cDNA (1:25 or 1:12.5), PowerUp SYBR Green Master Mix (#A25741, Thermo Fisher Scientific), and 200 nM primers (see below) on a CFX Connect RT-PCR system (BioRad). Data was analyzed using the ΔΔCT method. Results are mean±SEM of three independent experiments.

[2] = tested on: A-498 renal cell carcinoma cells; assay: qRT-PCR, Type 1 Interferon pathway gene expression in A-498 cells; format: cell-based, Human; settings: A498 cells, 2 μM, 24 hr

SMILES	increase in mRNA expression of IFNB1 [1]	increase in mRNA expression of IRF7 [1]	increase in mRNA expression of IFNB1 [2]	increase in mRNA expression of IRF1 [2] [fold]	increase in mRNA expression of IRF7 [2]	increase in mRNA expression of IRF9 [2] [fold]
C[C@@H]1COCCN1c1cc(N2CCCC[C@@H]2C(F)(F)F)[nH]c(=O)c1 [Compound 1, 4-((R)-3-methylmorpholino)-6-((R)-2-(trifluoromethyl)piperidin-1-yl)pyridin-2(1H)-one]	more than 3 fold	more than 3 fold	more than 10 fold	2 to 5	more than 10 fold	2 to 5
C[C@@H]1COCCN1c1cc(=O)n2c(n1)N(Cc1cncc(Cl)c1)[C@H](C(F)(F)F)CC2 [Compound 2, (S)-9-((5-chloropyridin-3-yl)methyl)-2-((R)-3-methylmorpholino)-8-(trifluoromethyl)-6,7,8,9-tetrahydro-4H-pyrimido[1,2-a]pyrimidin-4-one]	more than 3 fold	more than 3 fold	more than 10 fold	2 to 5	more than 10 fold	2 to 5
